Measured values taken from paper PMC11672532.

Chains of the proteins cited; added tags and fusions are not shown. Residues count along the entry.
UniProt P08581, 25-1390: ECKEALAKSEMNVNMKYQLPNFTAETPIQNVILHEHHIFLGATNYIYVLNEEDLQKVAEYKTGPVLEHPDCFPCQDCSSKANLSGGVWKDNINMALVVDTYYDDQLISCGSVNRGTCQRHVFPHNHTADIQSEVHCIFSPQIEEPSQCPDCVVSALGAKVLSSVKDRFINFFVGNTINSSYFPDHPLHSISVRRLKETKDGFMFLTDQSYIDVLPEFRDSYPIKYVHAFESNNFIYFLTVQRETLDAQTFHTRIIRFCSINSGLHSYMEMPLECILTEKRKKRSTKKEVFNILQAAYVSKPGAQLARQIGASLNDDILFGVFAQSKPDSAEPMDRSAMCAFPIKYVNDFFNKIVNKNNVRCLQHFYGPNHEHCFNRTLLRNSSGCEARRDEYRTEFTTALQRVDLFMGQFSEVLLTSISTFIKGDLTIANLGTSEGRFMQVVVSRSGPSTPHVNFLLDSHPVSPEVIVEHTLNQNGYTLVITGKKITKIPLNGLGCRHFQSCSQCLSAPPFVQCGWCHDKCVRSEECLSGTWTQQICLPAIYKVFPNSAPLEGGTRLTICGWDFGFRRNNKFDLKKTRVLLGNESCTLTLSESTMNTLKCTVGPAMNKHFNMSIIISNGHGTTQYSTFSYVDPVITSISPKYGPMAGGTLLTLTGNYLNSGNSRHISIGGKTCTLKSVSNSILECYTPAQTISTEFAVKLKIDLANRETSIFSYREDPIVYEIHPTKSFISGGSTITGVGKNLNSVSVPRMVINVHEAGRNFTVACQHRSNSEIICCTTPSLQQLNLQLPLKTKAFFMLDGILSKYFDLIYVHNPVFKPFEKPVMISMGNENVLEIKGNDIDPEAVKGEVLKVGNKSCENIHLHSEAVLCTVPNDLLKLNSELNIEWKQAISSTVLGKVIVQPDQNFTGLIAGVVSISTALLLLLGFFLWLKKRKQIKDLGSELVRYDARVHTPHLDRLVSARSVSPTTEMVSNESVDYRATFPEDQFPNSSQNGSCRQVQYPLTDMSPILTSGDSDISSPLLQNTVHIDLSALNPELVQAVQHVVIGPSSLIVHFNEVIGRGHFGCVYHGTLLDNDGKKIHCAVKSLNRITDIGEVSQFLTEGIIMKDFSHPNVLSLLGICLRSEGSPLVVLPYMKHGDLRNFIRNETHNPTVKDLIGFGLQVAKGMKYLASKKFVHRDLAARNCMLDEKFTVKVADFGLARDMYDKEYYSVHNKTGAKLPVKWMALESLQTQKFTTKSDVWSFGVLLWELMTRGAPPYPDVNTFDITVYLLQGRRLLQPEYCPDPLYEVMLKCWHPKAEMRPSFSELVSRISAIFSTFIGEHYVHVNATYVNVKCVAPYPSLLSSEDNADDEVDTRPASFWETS

Biological target: c-Met (UniProt P08581)
Assay: flow cytometry on cells
Conditions: protein on the cell surface

Sequence | binding result (A549 (high c-Met) versus HeLa (low c-Met), label: 5'-FAM, single-stranded DNA) | binding result (A549, signal similar to NT-Ch2-Apt on c-Met knockdown cells, 5' and 3' cholesterol on ASO strand, label: FAM (5' of DNA arm strand 1))
TGGATGGTAGCTCGGTCGGGGTGGGTGGGTTGGCAAGTCT [FAM-c-Met aptamer] | binds | 
ACCTGCCATGCTCGGTCGGGGTGGGTGGGTTGCGTTCAGA / GGTGTCACAGGCGGGACCCCCGACCGA / GTCCCGCCTGTGACACCTCCCGCCTGTGACATGCATTTTTTTTCCCGCCTGTGACATGCATTGTCCCGCCTGTGACACC / CAACCCACCCGGTGTCACAGGCGGGAC [NT-Ch2-Lib (library-strand nanotweezer)] |  | binds more weakly

The exact form of at least one protein or probe is not confirmed. At least one result comes from cells or an extract, where the contact may be indirect. A weaker result is weaker than the reference pair of the same experiment. At least one verdict rests on a figure or table, not on a statement of the authors.
